# Test results: the supplement of paper PMC12889115
# The other results are listed elsewhere or left out. These are raw signals, not scaled to a control.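 First-pass screen: polymyxin B was added at a level that permeabilizes the Salmonella outer membrane while sparing the inner membrane. DMSO wells, with and without polymyxin B, defined maximum growth. Because plates differed from one another, each plate's data were ranked separately and the compounds with the lowest OD600 were carried forward as hits.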
# Test system: Salmonella enterica serovar Typhimurium SL1344
# Test: bacterial growth OD600 after 18 h with compound and polymyxin B; higher = more bacterial growth (less inhibition)
# Conditions: 50 µM, Mueller-Hinton broth
SMILES,bacterial growth OD600 (polymyxin B 0.75 µg/mL),bacterial growth OD600 (polymyxin B 1 µg/mL)
OCCC#Cc1ccc(CN2CC[C@@H](N3CCCCCC3)[C@H](O)C2)cc1,0.795,
COc1ccccc1OCC(=O)NCC1CCCN(Cc2ccc(C)c(C)c2)C1 (stereo not given),,0.933
CC(C)CN1CCC(C(Cc2ccccc2Cl)N(C)C(=O)c2ccco2)CC1 (stereo not given),0.866,
O[C@@H]1CN(C/C(Cl)=C/c2ccccc2)CC[C@H]1N1CCN(c2ccccc2F)CC1,0.555,
Cc1ccc(CNC(=O)c2cc(COc3cccc4cccnc34)on2)s1,,0.862
Cc1cc(Cl)c2oc(C(=O)N3CCCC(C(=O)c4nccn4C)C3)c(C)c2c1 (stereo not given),,0.699
O=C(CN1Cc2ccccc2OC(c2ccccc2F)C1)N1CCC(C(O)c2cccnc2)CC1 (stereo not given),0.825,
Cc1nc(CN(C)C(=O)C2CCC(=O)N(CCc3cccc(F)c3)C2)cs1 (stereo not given),,0.961
CCN1CCN(C(=O)c2ccc(N3CCC(NCc4ccc(C(=O)OC)cc4)CC3)cc2)CC1,0.874,
O=C1NCCN(Cc2cccnc2)C1CC(=O)N(Cc1ccccc1)CC1CCC1 (stereo not given),,0.832
O=C(NC1CCCN(CCCc2ccccc2)C1)c1cc[n+]([O-])cc1 (stereo not given),0.817,
CN1CCCC2(CCN(C(=O)c3ccc4c(c3)OCO4)C2)C1=O (stereo not given),,0.939
CN(CCC1CCOCC1)C(=O)C1CCC(=O)N(C2CCCCCC2)C1 (stereo not given),,1.18
CC(C)CN1CCC(C2CCN(C(=O)c3ccnnc3)C2)CC1 (stereo not given),0.826,
CCC(O)CNC(=O)c1ccc(OC2CCN(C(=O)C3CC3)CC2)cc1 (stereo not given),,0.972
C=CCC(=O)N1CCC2(CCCN(CCCc3ccccc3)C2=O)C1 (stereo not given),,0.972
COCCN(CC1CCN(Cc2ccccc2F)CC1)C(=O)c1cc(C2CC2)n[nH]1,,0.836
Cc1c(CC(=O)NC(C)C2CC2)c2c(n1Cc1ccccc1)CCCC2=O (stereo not given),,1.22
COc1ccc(CN2CCCC(Nc3ccc(C)c(C)c3)C2)cc1O (stereo not given),,0.819
O=C(Nc1ccnn1C1CCN(C(=O)Cc2ccc(F)c(F)c2)CC1)C1CC1,,0.947
O=C(c1cc2ccccc2oc1=O)N1CCCC(Nc2ccc3c(c2)OCCO3)C1 (stereo not given),,0.932
Cc1cccc(C(=O)N2CCOc3ccc(C(O)CCc4ccccc4)cc3C2)c1C (stereo not given),0.51,
O=C(c1ccccc1Cl)N1CCCC(N2CCN(c3ccccc3F)CC2)C1 (stereo not given),,0.943
COc1cc(C)c(CNC2CCCc3c2cnn3-c2ccccn2)cc1C (stereo not given),0.755,
CC[C@H](C)[C@H](NC1CCN(c2ccc(NC(=O)C3CCCC3)cc2)CC1)C(=O)OC,0.805,
CCN1CCCC1CNC(=O)CCC1CCN(C2CCSCC2)CC1 (stereo not given),0.81,
CCCN1CCC(NC2CC(=O)N(C3CCCCCC3)C2)CC1 (stereo not given),,0.791
Cc1nnc(-c2cccc(NC(=O)C3CCN(C(=O)C4CCC4)CC3)c2)s1,0.859,
CCOC(=O)CCNC(=O)c1cc(Cl)ccc1OC1CCN(C(C)=O)CC1,,0.948
CCOC(=O)C1(Cc2cccc(OC)c2)CCCN(C(=O)CCc2c(C)nn(C)c2C)C1 (stereo not given),0.829,

# As a short view, some entries already given.
SMILES,bacterial growth OD600 (polymyxin B 0.75 µg/mL),bacterial growth OD600 (polymyxin B 1 µg/mL)
COCCN(CC1CCN(Cc2ccccc2F)CC1)C(=O)c1cc(C2CC2)n[nH]1,,0.836
Cc1c(CC(=O)NC(C)C2CC2)c2c(n1Cc1ccccc1)CCCC2=O (stereo not given),,1.22
